No constants are given. Whether binding was seen depends on the method and setting. Some binding calls cover weakened binding; strength is not graded here.
Molecular target: T1, mouse growth hormone receptor (liver microsomal membrane preparation) (mouse) (UniProt P16882)
T1 sequence (looked up): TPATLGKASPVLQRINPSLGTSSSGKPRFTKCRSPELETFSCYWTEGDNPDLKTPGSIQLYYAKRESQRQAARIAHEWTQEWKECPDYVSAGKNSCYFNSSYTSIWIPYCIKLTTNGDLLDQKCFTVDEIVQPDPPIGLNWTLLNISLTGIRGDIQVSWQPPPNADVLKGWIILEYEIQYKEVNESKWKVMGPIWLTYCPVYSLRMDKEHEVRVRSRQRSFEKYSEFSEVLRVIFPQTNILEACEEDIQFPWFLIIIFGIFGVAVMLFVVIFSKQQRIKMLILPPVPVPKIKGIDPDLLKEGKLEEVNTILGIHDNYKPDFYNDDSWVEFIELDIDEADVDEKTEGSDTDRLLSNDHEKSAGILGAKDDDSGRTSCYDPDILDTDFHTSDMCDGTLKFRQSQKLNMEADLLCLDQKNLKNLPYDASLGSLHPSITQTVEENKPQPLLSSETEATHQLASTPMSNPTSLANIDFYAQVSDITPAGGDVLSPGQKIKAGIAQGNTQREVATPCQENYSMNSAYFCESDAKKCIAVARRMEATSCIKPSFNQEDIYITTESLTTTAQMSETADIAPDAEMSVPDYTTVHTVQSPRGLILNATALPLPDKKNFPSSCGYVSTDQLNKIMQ
Assay: [125I]-hGH specific binding to mouse liver microsomal membranes, pellets counted in a gamma counter

Sequences of proteins named here, by UniProt entry; tags and fusion partners are left off. Residues count along the entry.
UniProt P01241, residues 27-217: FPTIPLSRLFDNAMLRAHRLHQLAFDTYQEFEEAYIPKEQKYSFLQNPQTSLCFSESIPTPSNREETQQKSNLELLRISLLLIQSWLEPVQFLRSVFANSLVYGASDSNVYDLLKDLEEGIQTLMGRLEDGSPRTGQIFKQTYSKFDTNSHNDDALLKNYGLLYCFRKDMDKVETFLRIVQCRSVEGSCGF

“iodinated human growth hormone [^125 I] hGH (from UniProt P01241 27-217) (ligand)” was tested, and the binding was “binds”.
